Assay results taken from the supplement of paper PMC7661543.
± gives the standard deviation of the averaged measurements. Differences between knockout arms are mostly noise.

Assays:
[1] = system: HCC-38; assay: relative cell number vs DMSO control (72 h) (% of DMSO); higher = less growth inhibition (more cells)
Protocol: (§1)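 QMAP-Seq: a pool of 5 breast cancer cell lines (ZR-75-1, SKBR3, HCC-38, MDA-MB-231, BT-20), each carrying 12 doxycycline-inducible Cas9 sgRNA perturbations (11 knockouts plus non-targeting sgNT), was treated with compounds for 72 h at four 10-fold doses (10 nM-10 uM or 1 nM-1 uM range). Barcodes were amplified and sequenced, and cell number was interpolated from 293T spike-in standard curves. The result is expressed as % of the median of DMSO wells. Two biological replicates.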

[2] = system: MDA-MB-231; assay: as above
Protocol: as §1

CCCc1nn(C)c2c(=O)[nH]c(-c3cc(S(=O)(=O)N4CCN(C)CC4)ccc3OCC)nc12 [Sildenafil]
relative cell number
Conditions | [1] | [2]
sgRNA knockout: sgATF3, 10 nM | 88.9 ± 14 | 105 ± 24
sgRNA knockout: sgATF3, 100 nM | 108 ± 8 | 96.6 ± 4.2
sgRNA knockout: sgATF3, 1000 nM | 111 ± 9.7 | 99.1 ± 22
sgRNA knockout: sgATF3, 10000 nM | 113 ± 5.2 | 112 ± 8.2
sgRNA knockout: sgATF4, 10 nM | 83.4 ± 13 | 84.8 ± 9.8
sgRNA knockout: sgATF4, 100 nM | 98.48 ± 0.25 | 99.2 ± 29
sgRNA knockout: sgATF4, 1000 nM | 109 ± 11 | 94.5 ± 21
sgRNA knockout: sgATF4, 10000 nM | 129 ± 21 | 66.1 ± 7.4
sgRNA knockout: sgATF6, 10 nM | 92.9 ± 5.1 | 89 ± 14
sgRNA knockout: sgATF6, 100 nM | 99.8 ± 14 | 106 ± 9.3
sgRNA knockout: sgATF6, 1000 nM | 91.4 ± 3.5 | 84.88 ± 0.26
sgRNA knockout: sgATF6, 10000 nM | 90.8 ± 3.1 | 81.3 ± 19
sgRNA knockout: sgATG7, 10 nM | 83.8 ± 14 | 93.9 ± 28
sgRNA knockout: sgATG7, 100 nM | 100 ± 4.3 | 89.4 ± 22
sgRNA knockout: sgATG7, 1000 nM | 111 ± 7 | 86.3 ± 15
sgRNA knockout: sgATG7, 10000 nM | 125 ± 18 | 94.2 ± 12
sgRNA knockout: sgERN1, 10 nM | 96.3 ± 6.1 | 91.4 ± 30
sgRNA knockout: sgERN1, 100 nM | 99.5 ± 4 | 85 ± 8.3
sgRNA knockout: sgERN1, 1000 nM | 112 ± 8 | 81.6 ± 7.8
sgRNA knockout: sgERN1, 10000 nM | 111 ± 1.4 | 108 ± 10
sgRNA knockout: sgHSF1, 10 nM | 101 ± 3.5 | 94 ± 12
sgRNA knockout: sgHSF1, 100 nM | 117 ± 1.2 | 79.9 ± 12
sgRNA knockout: sgHSF1, 1000 nM | 93.5 ± 2.8 | 96.4 ± 17
sgRNA knockout: sgHSF1, 10000 nM | 93.4 ± 15 | 118 ± 28
sgRNA knockout: sgHSF2, 10 nM | 90.4 ± 8.7 | 99.2 ± 5
sgRNA knockout: sgHSF2, 100 nM | 94.7 ± 1.1 | 94.4 ± 34
sgRNA knockout: sgHSF2, 1000 nM | 95.55 ± 0.2 | 91.5 ± 5.6
sgRNA knockout: sgHSF2, 10000 nM | 116 ± 15 | 72.3 ± 11
sgRNA knockout: sgKEAP1, 10 nM | 98.6 ± 2.6 | 108 ± 26
sgRNA knockout: sgKEAP1, 100 nM | 101 ± 28 | 103 ± 23
sgRNA knockout: sgKEAP1, 1000 nM | 95.8 ± 4.6 | 112 ± 8.9
sgRNA knockout: sgKEAP1, 10000 nM | 92.5 ± 17 | 106 ± 9.8
sgRNA knockout: sgNFE2L2, 10 nM | 84.6 ± 19 | 84.7 ± 21
sgRNA knockout: sgNFE2L2, 100 nM | 101.17 ± 0.063 | 123.1 ± 0.023
sgRNA knockout: sgNFE2L2, 1000 nM | 115 ± 5.6 | 98.3 ± 1.2
sgRNA knockout: sgNFE2L2, 10000 nM | 136 ± 9.7 | 91 ± 12
sgRNA knockout: sgSLC35F2, 10 nM | 87.4 ± 18 | 81.9 ± 24
sgRNA knockout: sgSLC35F2, 100 nM | 102.9 ± 0.85 | 111 ± 30
sgRNA knockout: sgSLC35F2, 1000 nM | 103 ± 1.5 | 108.2 ± 0.93
sgRNA knockout: sgSLC35F2, 10000 nM | 122 ± 0.27 | 118 ± 12
sgRNA knockout: sgXBP1, 10 nM | 82.8 ± 12 | 84.4 ± 8.2
sgRNA knockout: sgXBP1, 100 nM | 100.4 ± 0.27 | 91.9 ± 10
sgRNA knockout: sgXBP1, 1000 nM | 104 ± 11 | 96.69 ± 0.42
sgRNA knockout: sgXBP1, 10000 nM | 128 ± 11 | 90.4 ± 8.6

C=CC[C@@H]1/C=C(\C)C[C@H](C)C[C@H](OC)[C@H]2O[C@@](O)(C(=O)C(=O)N3CCCC[C@H]3C(=O)O[C@H](/C(C)=C/[C@@H]3CC[C@@H](O)[C@H](OC)C3)[C@H](C)[C@@H](O)CC1=O)[C@H](C)C[C@@H]2OC [Tacrolimus]
relative cell number
Conditions | [1] | [2]
sgRNA knockout: sgATF3, 10 nM | 137 ± 14 | 110 ± 8.8
sgRNA knockout: sgATF3, 100 nM | 110 ± 5.4 | 137 ± 7.5
sgRNA knockout: sgATF3, 1000 nM | 124 ± 17 | 107 ± 21
sgRNA knockout: sgATF3, 10000 nM | 127 ± 4.1 | 127 ± 19
sgRNA knockout: sgATF4, 10 nM | 128 ± 16 | 159 ± 31
sgRNA knockout: sgATF4, 100 nM | 109 ± 2.3 | 140 ± 5.3
sgRNA knockout: sgATF4, 1000 nM | 118 ± 24 | 152 ± 14
sgRNA knockout: sgATF4, 10000 nM | 121 ± 1.5 | 154 ± 6
sgRNA knockout: sgATF6, 10 nM | 153 ± 4.2 | 130 ± 6.8
sgRNA knockout: sgATF6, 100 nM | 128 ± 13 | 113 ± 9.7
sgRNA knockout: sgATF6, 1000 nM | 127 ± 23 | 99 ± 18
sgRNA knockout: sgATF6, 10000 nM | 137.8 ± 0.91 | 89.6 ± 8.6
sgRNA knockout: sgATG7, 10 nM | 122 ± 1.4 | 109 ± 16
sgRNA knockout: sgATG7, 100 nM | 104 ± 8.9 | 120 ± 9
sgRNA knockout: sgATG7, 1000 nM | 124 ± 26 | 110 ± 27
sgRNA knockout: sgATG7, 10000 nM | 122.8 ± 1.1 | 104 ± 1.3
sgRNA knockout: sgERN1, 10 nM | 130 ± 3.1 | 94.9 ± 27
sgRNA knockout: sgERN1, 100 nM | 100 ± 1.1 | 101 ± 3.5
sgRNA knockout: sgERN1, 1000 nM | 134 ± 27 | 119 ± 21
sgRNA knockout: sgERN1, 10000 nM | 138 ± 7.2 | 120.4 ± 0.68
sgRNA knockout: sgHSF1, 10 nM | 154 ± 20 | 116 ± 12
sgRNA knockout: sgHSF1, 100 nM | 126 ± 20 | 118 ± 11
sgRNA knockout: sgHSF1, 1000 nM | 132 ± 36 | 90.8 ± 0.42
sgRNA knockout: sgHSF1, 10000 nM | 169 ± 2.9 | 117 ± 17
sgRNA knockout: sgHSF2, 10 nM | 143 ± 12 | 109 ± 1.1
sgRNA knockout: sgHSF2, 100 nM | 112 ± 5.7 | 122 ± 3
sgRNA knockout: sgHSF2, 1000 nM | 132 ± 23 | 88.5 ± 12
sgRNA knockout: sgHSF2, 10000 nM | 142 ± 17 | 106 ± 21
sgRNA knockout: sgKEAP1, 10 nM | 157.2 ± 1.1 | 122 ± 17
sgRNA knockout: sgKEAP1, 100 nM | 120 ± 15 | 107 ± 50
sgRNA knockout: sgKEAP1, 1000 nM | 129 ± 23 | 99.7 ± 23
sgRNA knockout: sgKEAP1, 10000 nM | 185 ± 2.4 | 104 ± 1.4
sgRNA knockout: sgNFE2L2, 10 nM | 126 ± 12 | 118 ± 1.7
sgRNA knockout: sgNFE2L2, 100 nM | 104.8 ± 0.28 | 111 ± 25
sgRNA knockout: sgNFE2L2, 1000 nM | 121 ± 29 | 118 ± 29
sgRNA knockout: sgNFE2L2, 10000 nM | 121 ± 5.2 | 116 ± 8.3
sgRNA knockout: sgSLC35F2, 10 nM | 122 ± 9.2 | 109 ± 7.8
sgRNA knockout: sgSLC35F2, 100 nM | 106 ± 1.3 | 117 ± 7.6
sgRNA knockout: sgSLC35F2, 1000 nM | 121 ± 34 | 124 ± 2.9
sgRNA knockout: sgSLC35F2, 10000 nM | 129 ± 1.9 | 122.2 ± 0.14
sgRNA knockout: sgXBP1, 10 nM | 126 ± 4.8 | 120 ± 7
sgRNA knockout: sgXBP1, 100 nM | 109.5 ± 1 | 112 ± 22
sgRNA knockout: sgXBP1, 1000 nM | 119 ± 33 | 122 ± 16
sgRNA knockout: sgXBP1, 10000 nM | 132 ± 4.2 | 115 ± 20
